# Some of the results follow.
# How the values were obtained:
# Assay in all cases: glycan array binding signal (z-score within array); higher = stronger binding
# Conditions in all cases: glycan notation: IUPAC condensed, linker removed
# [1] = biological target: GlcNAc(b1-2)[GlcNAc(b1-4)]Man(a1-3)[GlcNAc(b1-4)][GlcNAc(b1-2)[GlcNAc(b1-6)]Man(a1-6)]Man(b1-4)GlcNAc(b1-4)GlcNAc
# Procedure, shortened: (§1)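 Columns mapping to the same glycan were averaged after glycan names were converted to IUPAC-condensed notation. The data come from 3228 arrays in the Consortium for Functional Glycomics database, limited to those with an available protein sequence. Binding is reported as a within-array Z-score averaged across arrays of one protein sequence and across linkers.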
# [2] = biological target: GlcNAc(b1-2)[GlcNAc(b1-4)]Man(a1-3)[GlcNAc(b1-4)][GlcNAc(b1-2)[GlcNAc(b1-6)]Man(a1-6)]Man(b1-4)GlcNAc(b1-4)[Fuc(a1-6)]GlcNAc
# Procedure, shortened: as §1
# [3] = biological target: GlcNAc(b1-2)[GlcNAc(b1-6)]Man(a1-6)[GlcNAc(b1-2)Man(a1-3)]Man(b1-4)GlcNAc(b1-4)GlcNAc
# Procedure, shortened: as §1
# [4] = biological target: GlcNAc(b1-2)[GlcNAc(b1-6)]Man(a1-6)[GlcNAc(b1-2)Man(a1-3)]Man(b1-4)GlcNAc(b1-4)[Fuc(a1-6)]GlcNAc
# Procedure, shortened: as §1
# [5] = biological target: GlcNAc(b1-2)[GlcNAc(b1-6)]Man(a1-6)[GlcNAc(b1-4)][GlcNAc(b1-2)Man(a1-3)]Man(b1-4)GlcNAc(b1-4)GlcNAc
# Procedure, shortened: as §1
# GlcNAc(b1-3)Fuc = biological target: GlcNAc(b1-3)Fuc
# Procedure, shortened: as §1
# GlcNAc(b1-3)Gal = biological target: GlcNAc(b1-3)Gal
# Procedure, shortened: as §1
# [6] = biological target: GlcNAc(b1-3)Gal(b1-3)GalNAc
# Procedure, shortened: as §1
# GlcNAc(b1-3)Gal(b1-4)Glc = biological target: GlcNAc(b1-3)Gal(b1-4)Glc
# Procedure, shortened: as §1
# [7] = biological target: GlcNAc(b1-3)Gal(b1-4)GlcNAc
# Procedure, shortened: as §1
# [8] = biological target: GlcNAc(b1-3)Gal(b1-4)GlcNAc(b1-2)Man(a1-3)[GlcNAc(b1-3)Gal(b1-4)GlcNAc(b1-2)Man(a1-6)]Man(b1-4)GlcNAc(b1-4)GlcNAc
# Procedure, shortened: as §1
# [9] = biological target: GlcNAc(b1-3)Gal(b1-4)GlcNAc(b1-2)Man(a1-3)[GlcNAc(b1-3)Gal(b1-4)GlcNAc(b1-2)Man(a1-6)]Man(b1-4)GlcNAc(b1-4)[Fuc(a1-6)]GlcNAc
# Procedure, shortened: as §1
# [10] = biological target: GlcNAc(b1-3)Gal(b1-4)GlcNAc(b1-2)[GlcNAc(b1-3)Gal(b1-4)GlcNAc(b1-6)]Man(a1-6)[GlcNAc(b1-3)Gal(b1-4)GlcNAc(b1-2)Man(a1-3)]Man(b1-4)GlcNAc(b1-4)GlcNAc
# Procedure, shortened: as §1
# [11] = biological target: GlcNAc(b1-3)Gal(b1-4)GlcNAc(b1-3)Gal(b1-4)GlcNAc
# Procedure, shortened: as §1
# [12] = biological target: GlcNAc(b1-3)Gal(b1-4)GlcNAc(b1-3)Gal(b1-4)GlcNAc(b1-2)Man(a1-3)[GlcNAc(b1-3)Gal(b1-4)GlcNAc(b1-3)Gal(b1-4)GlcNAc(b1-2)Man(a1-6)]Man(b1-4)GlcNAc(b1-4)GlcNAc
# Procedure, shortened: as §1
# [13] = biological target: GlcNAc(b1-3)Gal(b1-4)GlcNAc(b1-3)Gal(b1-4)GlcNAc(b1-2)Man(a1-3)[GlcNAc(b1-3)Gal(b1-4)GlcNAc(b1-3)Gal(b1-4)GlcNAc(b1-2)Man(a1-6)]Man(b1-4)GlcNAc(b1-4)[Fuc(a1-6)]GlcNAc
# Procedure, shortened: as §1
# [14] = biological target: GlcNAc(b1-3)Gal(b1-4)GlcNAc(b1-3)Gal(b1-4)GlcNAc(b1-2)[GlcNAc(b1-3)Gal(b1-4)GlcNAc(b1-3)Gal(b1-4)GlcNAc(b1-6)]Man(a1-6)[GlcNAc(b1-3)Gal(b1-4)GlcNAc(b1-3)Gal(b1-4)GlcNAc(b1-2)Man(a1-3)]Man(b1-4)GlcNAc(b1-4)[Fuc(a1-6)]GlcNAc
# Procedure, shortened: as §1
# [15] = biological target: GlcNAc(b1-3)Gal(b1-4)GlcNAc(b1-3)Gal(b1-4)GlcNAc(b1-3)Gal(b1-4)GlcNAc(b1-2)Man(a1-3)[GlcNAc(b1-3)Gal(b1-4)GlcNAc(b1-3)Gal(b1-4)GlcNAc(b1-3)Gal(b1-4)GlcNAc(b1-2)Man(a1-6)]Man(b1-4)GlcNAc(b1-4)GlcNAc
# Procedure, shortened: as §1
# [16] = biological target: GlcNAc(b1-3)Gal(b1-4)GlcNAc(b1-3)Gal(b1-4)GlcNAc(b1-3)Gal(b1-4)GlcNAc(b1-2)Man(a1-3)[GlcNAc(b1-3)Gal(b1-4)GlcNAc(b1-3)Gal(b1-4)GlcNAc(b1-3)Gal(b1-4)GlcNAc(b1-2)Man(a1-6)]Man(b1-4)GlcNAc(b1-4)[Fuc(a1-6)]GlcNAc
# Procedure, shortened: as §1
# [17] = biological target: GlcNAc(b1-3)Gal(b1-4)GlcNAc(b1-3)Gal(b1-4)GlcNAc(b1-3)Gal(b1-4)GlcNAc(b1-2)[GlcNAc(b1-3)Gal(b1-4)GlcNAc(b1-3)Gal(b1-4)GlcNAc(b1-3)Gal(b1-4)GlcNAc(b1-6)]Man(a1-6)[GlcNAc(b1-3)Gal(b1-4)GlcNAc(b1-3)Gal(b1-4)GlcNAc(b1-3)Gal(b1-4)GlcNAc(b1-2)Man(a1-3)]Man(b1-4)GlcNAc(b1-4)[Fuc(a1-6)]GlcNAc
# Procedure, shortened: as §1
# [18] = biological target: GlcNAc(b1-3)Gal(b1-4)GlcNAc(b1-3)Gal(b1-4)GlcNAc(b1-3)Gal(b1-4)GlcNAc(b1-3)Gal(b1-4)GlcNAc(b1-2)Man(a1-3)[GlcNAc(b1-3)Gal(b1-4)GlcNAc(b1-3)Gal(b1-4)GlcNAc(b1-3)Gal(b1-4)GlcNAc(b1-3)Gal(b1-4)GlcNAc(b1-2)Man(a1-6)]Man(b1-4)GlcNAc(b1-4)GlcNAc
# Procedure, shortened: as §1
# [19] = biological target: GlcNAc(b1-3)Gal(b1-4)GlcNAc(b1-3)Gal(b1-4)GlcNAc(b1-3)Gal(b1-4)GlcNAc(b1-3)Gal(b1-4)GlcNAc(b1-2)Man(a1-3)[GlcNAc(b1-3)Gal(b1-4)GlcNAc(b1-3)Gal(b1-4)GlcNAc(b1-3)Gal(b1-4)GlcNAc(b1-3)Gal(b1-4)GlcNAc(b1-2)Man(a1-6)]Man(b1-4)GlcNAc(b1-4)[Fuc(a1-6)]GlcNAc
# Procedure, shortened: as §1
# [20] = biological target: GlcNAc(b1-3)Gal(b1-4)GlcNAc(b1-3)Gal(b1-4)GlcNAc(b1-3)Gal(b1-4)GlcNAc(b1-3)Gal(b1-4)GlcNAc(b1-2)[GlcNAc(b1-3)Gal(b1-4)GlcNAc(b1-3)Gal(b1-4)GlcNAc(b1-3)Gal(b1-4)GlcNAc(b1-3)Gal(b1-4)GlcNAc(b1-6)]Man(a1-6)[GlcNAc(b1-3)Gal(b1-4)GlcNAc(b1-3)Gal(b1-4)GlcNAc(b1-3)Gal(b1-4)GlcNAc(b1-3)Gal(b1-4)GlcNAc(b1-2)Man(a1-3)]Man(b1-4)GlcNAc(b1-4)[Fuc(a1-6)]GlcNAc
# Procedure, shortened: as §1
# [21] = biological target: GlcNAc(b1-3)Gal(b1-4)GlcNAc(b1-3)Gal(b1-4)GlcNAc(b1-3)GalNAc
# Procedure, shortened: as §1
# [22] = biological target: GlcNAc(b1-3)Gal(b1-4)GlcNAc(b1-3)GalNAc
# Procedure, shortened: as §1
# [23] = biological target: GlcNAc(b1-3)Gal(b1-4)GlcNAc(b1-3)[GlcNAc(b1-3)Gal(b1-4)GlcNAc(b1-3)]GalNAc
# Procedure, shortened: as §1
# [24] = biological target: GlcNAc(b1-3)Gal(b1-4)GlcNAc(b1-6)[Gal(b1-3)]GalNAc
# Procedure, shortened: as §1
# [25] = biological target: GlcNAc(b1-3)Gal(b1-4)GlcNAc(b1-6)[GlcNAc(b1-3)Gal(b1-3)]GalNAc
# Procedure, shortened: as §1
# [26] = biological target: GlcNAc(b1-3)Gal(b1-4)GlcNAc(b1-6)[GlcNAc(b1-3)]Gal(b1-4)GlcNAc
# Procedure, shortened: as §1
# GlcNAc(b1-3)GalNAc = biological target: GlcNAc(b1-3)GalNAc
# Procedure, shortened: as §1
# GlcNAc(b1-3)Man = biological target: GlcNAc(b1-3)Man
# Procedure, shortened: as §1
# [27] = biological target: GlcNAc(b1-3)[GlcNAc(b1-4)][GlcNAc(b1-6)]GlcNAc
# Procedure, shortened: as §1
# [28] = biological target: GlcNAc(b1-3)[GlcNAc(b1-6)]Gal(b1-4)GlcNAc
# Procedure, shortened: as §1
# [29] = biological target: GlcNAc(b1-3)[GlcNAc(b1-6)]GalNAc
# Procedure, shortened: as §1
# [30] = biological target: GlcNAc(b1-4)Gal(b1-4)GlcNAc
# Procedure, shortened: as §1
# GlcNAc(b1-4)GlcNAc = biological target: GlcNAc(b1-4)GlcNAc
# Procedure, shortened: as §1
# [31] = biological target: GlcNAc(b1-4)GlcNAc(b1-4)GlcNAc
# Procedure, shortened: as §1
# [32] = biological target: GlcNAc(b1-4)GlcNAc(b1-4)GlcNAc(b1-4)GlcNAc(b1-4)GlcNAc
# Procedure, shortened: as §1
binder,measurement,setting,value
PX9961Q-bfa-504-27-504 (Bacteroides fragilis) (protein) NDWLDRKPADGIPSEDAITNYNDALTARTGMYDGIQGNSNATSYYGARMFYYGDVRADDMQARTQGMRSSSCYEMLYTVDDAPNMWNIPYNVIRRANRLIEAINEKKVTDATEAQIGKIYSEALVVRALVHFDLVRIYGMPYTADNGASLGVPVIVKPLERNDLPSRNTVAEVYTQVITDLTDAINSGYLAKDQTPGYINEWAAKALLTRVYLTKGDNENALKVAEDIITNSPYKLWTNEEYVNAWYKSNGAHTNEMIFEVVNASNDDWTDRNGIAYLLNENGYADAIVTKSFMNMLSQDPKDVRIGMVLPAQYDKDLQEEYGDAKIFINKFPADKDDVGEMRLNNLPLLRLSEVYLSAAEAAAKLGGHQDKAAKYLNEIVQRANPEAKAISEADATVERIILERRKEMIGEGQRYFDALRNNETIVRYKDEGDKGYHYSLIKESQSFDRTYFRAILPIPVDETNVNPNLRAQQNPGY,glycan array binding signal (z-score),[1],-0.672
same,glycan array binding signal (z-score),[2],-0.492
same,glycan array binding signal (z-score),[3],-0.225
same,glycan array binding signal (z-score),[4],0.418
same,glycan array binding signal (z-score),[5],-0.107
same,glycan array binding signal (z-score),GlcNAc(b1-3)Fuc,-0.326
same,glycan array binding signal (z-score),GlcNAc(b1-3)Gal,-0.232
same,glycan array binding signal (z-score),[6],0.085
same,glycan array binding signal (z-score),GlcNAc(b1-3)Gal(b1-4)Glc,-0.949
same,glycan array binding signal (z-score),[7],-0.27
same,glycan array binding signal (z-score),[8],0.607
same,glycan array binding signal (z-score),[9],-0.621
same,glycan array binding signal (z-score),[10],0.617
same,glycan array binding signal (z-score),[11],-0.184
same,glycan array binding signal (z-score),[12],0.656
same,glycan array binding signal (z-score),[13],0.781
same,glycan array binding signal (z-score),[14],-0.347
same,glycan array binding signal (z-score),[15],-0.679
same,glycan array binding signal (z-score),[16],2.65
same,glycan array binding signal (z-score),[17],0.958
same,glycan array binding signal (z-score),[18],-0.236
same,glycan array binding signal (z-score),[19],0.345
same,glycan array binding signal (z-score),[20],0.482
same,glycan array binding signal (z-score),[21],-0.298
same,glycan array binding signal (z-score),[22],0.039
same,glycan array binding signal (z-score),[23],-0.103
same,glycan array binding signal (z-score),[24],-0.391
same,glycan array binding signal (z-score),[25],1.69
same,glycan array binding signal (z-score),[26],0.152
same,glycan array binding signal (z-score),GlcNAc(b1-3)GalNAc,-0.328
same,glycan array binding signal (z-score),GlcNAc(b1-3)Man,0.083
same,glycan array binding signal (z-score),[27],-0.908
same,glycan array binding signal (z-score),[28],-1.1
same,glycan array binding signal (z-score),[29],-0.04
same,glycan array binding signal (z-score),[30],-0.752
same,glycan array binding signal (z-score),GlcNAc(b1-4)GlcNAc,0.278
same,glycan array binding signal (z-score),[31],-0.077
same,glycan array binding signal (z-score),[32],-0.574
